Laboratory results: PubChem BioAssay AID493014 (National Center for Advancing Translational Sciences (NCATS), 2011)
In all, about 340,000 compounds went through this assay and about 170 (0.05%) were called active. The shares of active, inactive and inconclusive entries below differ from those in the screen. The call rests on the fitted dose curve; in most records, active means well fitted inhibition curve with a large enough effect in the signal ratio, with a control signal flat (not every such curve was filed as active); inconclusive means small, poorly fitted or top-dose-only effect, or effect the other way, or a change in a side signal; inactive means flat fitted curve, though single readings scatter; the % refers to the signal ratio. Potencies of inconclusive entries are doubtful fits and often do not repeat.

Test: qHTS Assay to Find Inhibitors of Chronic Active B-Cell Receptor Signaling;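 on activity change, negative = inhibition: plate controls were basal doxycycline-induced cells for no effect and cells given 10 µM MG132 for full effect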
Details: ABC-DLBCL IkBa-CBG/CBR reporter, luminescence ratio (green luciferase fused to IkBa over red control in TMD8 lymphoma cells), 4 h; activity change, negative = inhibition: at 46.1 µM (top of the series) unless noted
Procedure, shortened: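 Cell line TMD8 (human ABC DLBCL), stably expressing tet-inducible CBG68-IkBa fusion and CBR; IMDM/0.5% FBS; cpd up to 46 uM; dox induction, 4 h, 37C/5% CO2; dual luminescence; green/red ratio; MG132 control.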
Potency means the concentration at half of the fitted maximal effect.

Structure (SMILES) | activity change, negative = inhibition | Potency
CC(=O)N1CCCc2cc(S(=O)(=O)NCc3ccc(C)cc3)ccc21 | inactive: -5.01% | –
CSc1ccc(/C=C/c2cc(=O)c3ccccc3[nH]2)cc1 | inactive: 4.01% | –
O=C(c1ccc(OC2CCN(CCc3ccccc3)CC2)cc1)N1CCCC1 | inconclusive: 3.71% | –
Nc1cc(=O)[nH]c(SCC(=O)Nc2cc(Cl)ccc2Cl)n1 | – | inconclusive: 3.55 µM [falling, full curve, poor fit]
COc1ccc(OC)c(-n2c(=O)c3ccccc3c3ccccc3c2=O)c1 | – | inconclusive: 29.1 µM [falling, partial curve, poor fit]
Cc1ccc(-n2ncc3c(N(CC(C)C)CC(C)C)ncnc32)c(C)c1 | – | inconclusive: 7.08 µM [rising, full curve, poor fit]
Cc1cc(C)nc(SCCCn2c(=O)[nH]c3ccccc32)n1 | – | inconclusive: 11.2 µM [falling, partial curve]
Cc1ccc(NC(=O)NCc2cccnc2)cc1Cl | inconclusive: 18.1% | –
O=C(O)C(Cc1ccccc1)N1C(=O)/C(=C/C=C/c2ccco2)SC1=S (stereo not given) | inactive: 12.9% | –
CNC(=O)c1[nH]cnc1C(=O)Nc1ccc(F)cc1 | inconclusive: -0.0407% | –
Cc1cccc(NS(=O)(=O)c2cc(C(=O)OCC(=O)Nc3cc(C)on3)ccc2C)c1 | inconclusive: 1.94% | –
CCOC(=O)c1c(NC(=O)CSc2nc3ccccc3s2)sc(C(C)=O)c1C | – | inconclusive: 1.12 µM [falling, full curve, poor fit]
CC1CCC(NC(=O)c2ccc(/C=C3\Oc4ccccc4N(C)C3=O)cc2)CC1 (stereo not given) | – | inconclusive: 20.6 µM [falling, partial curve]
CCCC(C)C(=O)Nc1ccccc1C(=O)OCC (stereo not given) | inconclusive: 5.68% | –
CCOC(=O)CN1C(c2ccccc2O)Nc2ccc(Br)cc2C1c1ccccc1 (stereo not given) | – | inconclusive: 9.2 µM [rising, partial curve, poor fit]
COCCn1nnnc1C(c1ccc(C)cc1)N1CCN(Cc2ccc3c(c2)OCO3)CC1 (stereo not given) | inactive: 1.74% | –
CCCc1nc(N)nc2c1C(=O)CC(C)(C)C2 | inconclusive: 8.68% | –
CCCCCCCn1ccc(O)c(CC(=O)OC)c1=O | inconclusive: -1.8% | –
CC(C)C(=O)Nc1ccc(O)c(-c2csc(N)n2)c1 | – | inconclusive: 12.6 µM [falling, partial curve]
COc1ccccc1CCNC(=O)C(=O)c1cn(CC(=O)N2CCCC2)c2ccccc12 | – | inconclusive: 11.2 µM [falling, partial curve, poor fit]
O=C1NC(=O)C2(COC3(CCCC3)OC2)S1 | – | inconclusive: 3.26 µM [activator, partial curve, poor fit]
COc1cc(NC(=O)C(C)Oc2ccccc2)c(OC)cc1NC(=O)c1ccccc1 (stereo not given) | inactive: 2.96% | –
Cc1ccc2nc(-c3ccccn3)[nH]c2c1 | inconclusive: -9.09% | –
Cc1ccc(N2CC(C(=O)Nc3nnc(SCCN4CCOCC4)s3)CC2=O)cc1 (stereo not given) | inactive: -0.99% | –
CC1=NN(c2nc(-c3ccc(C)cc3)cs2)C(=O)C1N=Nc1ccccc1O (stereo not given) | inactive: 4.07% | –
COc1ccc(C(CC(=O)Nc2cc(C)ccn2)N2Cc3ccccc3C2=O)cc1 (stereo not given) | inconclusive: -17.2% | –
COc1cc(/C=N/NC(=O)c2cc3ccccc3cc2O)ccc1OCCN1CCCCC1 | inconclusive: 1.72% | –

Structure (SMILES) | activity change, negative = inhibition | Potency
Cc1c(O)ccc2c(-c3ccccc3)cc(=O)oc12 | inconclusive: -6.04% | –
COc1cc(NS(=O)(=O)c2ccc(NC(=S)NC(=O)CC(C)C)cc2)nc(OC)n1 | inactive: -2.69% | –
CCOc1ccccc1NC(=O)C(=O)NCCc1sc2nc(-c3ccc(OC)cc3)nn2c1C | – | inconclusive: 11.2 µM [falling, partial curve]
Cc1nn2c(N3CCCC3)cc(C(C)C)nc2c1-c1ccccc1 | inconclusive: 0.206% | –
Clc1ccc(Nc2nc3cccnc3s2)cc1 | inconclusive: 3.42% | –
Cc1ccc(C2c3c(oc4ccccc4c3=O)C(=O)N2CCCN2CCOCC2)o1 (stereo not given) | inactive: -8.38% | –
O=[N+]([O-])c1ccc(Cl)cc1Sc1ccccn1 | inactive: -0.846% | –
O=C(COc1ccccc1)NCc1ccccc1 | inconclusive: 30.9% | –
COc1cc(/C=C2\C(=O)ON=C2c2ccccc2)cc(Br)c1O | inactive: 2.89% | –
OCCC1CN(Cc2nc3ccccc3s2)CCN1CCc1ccccc1 (stereo not given) | – | inconclusive: 35.5 µM [falling, partial curve, poor fit]
O=C(COC(=O)/C=C/c1ccccc1Cl)Nc1cccnc1Cl | inconclusive: 4.45% | –
O=C(CN(Cc1ccccc1Cl)S(=O)(=O)c1ccc(Cl)cc1)N/N=C/c1ccc(C(=O)O)cc1 | inconclusive: 0.0296% | –
COc1ccc(C(=O)NC(C)CCc2ccccc2)cc1[N+](=O)[O-] (stereo not given) | inconclusive: -2.42% | –
CCOc1ccc(CN2CCN(Cc3cn(CC)nc3C)CC2CCO)cc1 (stereo not given) | inconclusive: -14.2% | –
CCN1CCCC1CNCc1cc(OC)c(OC)c(OC)c1 (stereo not given) | inconclusive: 10.4% | –
COc1ccc(C2=NN(C(C#N)c3ccc(OC)cc3)C(c3ccccc3)C2)cc1 (stereo not given) | inconclusive: -20.9% | –
CC1CCCC(C)N1C(=O)c1cccc2c1-c1ccccc1/C2=N/O (stereo not given) | – | inconclusive: 9.2 µM [rising, partial curve]
Cc1cc(=O)oc2cc(OCC(=O)N/N=C/c3ccccc3[N+](=O)[O-])ccc12 | – | inconclusive: 32.6 µM [falling, partial curve, poor fit]
CN(Cc1ccccc1)C1=CC(=[N+]2CCCCC2)CC(C)(C)C1 | inconclusive: -8.64% | –
COc1ccc(-c2cc(C(=O)N3CCN(c4ccccc4)CC3)c3ccccc3n2)cc1OC | inconclusive: -2.7% | –
O=C(NCc1cccc(Cl)c1)c1ccco1 | inconclusive: -0.575% | –
CC(C)(C)C(=O)NC(=S)NNC(=O)c1ccc(-c2ccccc2)cc1 | – | inconclusive: 11.2 µM [falling, partial curve, poor fit]
N#CC1=C(N)N2C(=C(C#N)C1c1cccc(Br)c1)Nc1ccccc12 (stereo not given) | inconclusive: -7.34% | –
COc1ccccc1C1=NNC(=NCc2ccccc2)SC1 | – | inconclusive: 15.8 µM [falling, partial curve, poor fit]
COc1ccc(Br)cc1CN1CCN(S(=O)(=O)Cc2ccccc2)CC1 | inactive: 1.66% | –
COC(=O)C1=C(C)NC(=S)NC1c1ccc(OCC(=O)N2CC(C)OC(C)C2)c(OC)c1 (stereo not given) | inconclusive: 0.449% | –
Cc1cc(C)c(C#N)c(OCC(=O)c2ccc(Br)cc2)n1 | inconclusive: 9.23% | –

Structure (SMILES) | activity change, negative = inhibition | Potency
O=C(N1CCN(c2ccccn2)CC1)C(Cl)(Cl)Cl | inconclusive: -2.27% | –
O=C(O)c1cccc(Cn2c(Cl)c(/C=N/NC(=O)c3ccc(O)cc3)sc2=O)c1 | – | inconclusive: 35.5 µM [falling, partial curve]
O=C(Cc1ccc(Cl)cc1)Nc1ccc(C(=O)N2CCCCC2)cc1 | – | inconclusive: 15.8 µM [falling, single point]
CN(C)CCNC(=S)Nc1ccc(Cl)cc1 | inactive: 3.13% | –
c1ccc(CCNCC2COc3ccccc3O2)cc1 (stereo not given) | inconclusive: -1.14% | –
O=C(CCC(=O)OCC(=O)c1ccc([N+](=O)[O-])cc1)NC1CCCCC1 | inconclusive: -11.7% | –
CCCCOc1ccc(/C=C/C2=CC(C)(C)NC(=S)N2)cc1OCC | inactive: -12% | –
C/C(CC(=O)Nc1ccc(N(C)C)cc1)=N\NC(=O)c1ccccn1 | – | inconclusive: 11.2 µM [falling, partial curve]
CC(=O)c1ccc(C(=O)Nc2sc3c(c2C(N)=O)CCN(Cc2ccccc2)C3)cc1 | inactive: -3.87% | –
O=C(CCN1C(=O)/C(=C/c2cccs2)SC1=S)Nc1ccc(O)cc1 | inconclusive: -28.8% | –
COc1cc(OC)cc(C(=O)NCCSc2c[nH]c3ccccc23)c1 | inconclusive: -21.7% | –
CSc1ccc(/C=N/NC(=O)COc2ccc(Br)cc2Cl)cc1 | inconclusive: 13.3% | –
O=C1CCC(=O)N1c1ccccc1-c1ccccc1 | – | inconclusive: 15.8 µM [falling, partial curve]
O=C(O)/C=C/c1ccc(-c2cccc(C(F)(F)F)c2)o1 | – | inconclusive: 3.98 µM [falling, full curve, poor fit]
CCN(CC)S(=O)(=O)c1ccc(N2CCN(CCOc3ccc(OC)cc3)CC2)nc1 | inactive: 11.3% | –
COc1cc2c(cc1NC(=O)CSc1nnc(Cc3cccs3)n1C)oc1ccccc12 | inconclusive: 7.77% | –
O=c1c(Cl)c(NC2CC2)cnn1-c1ccccc1 | inconclusive: -4.18% | –
O=C(Cn1cnc2c(oc3ccccc32)c1=O)c1ccccc1 | inconclusive: 2.27% | –
COc1ccccc1-c1nnc(SCC(=O)NC2CCS(=O)(=O)C2)n1CCc1ccccc1 (stereo not given) | inconclusive: -5.74% | –
O=Cc1c(Sc2ccccc2)nc2ccccn2c1=O | – | inconclusive: 29.1 µM [falling, single point]
N#Cc1c(N2CCCCC2)nc(N)c2c(N)nc3c(c12)CC(CCl)O3 (stereo not given) | inconclusive: 13.9% | –
COc1ccc(-n2c(=S)[nH]c3c(oc4ccccc43)c2=O)cc1 | – | inconclusive: 18.4 µM [falling, single point]
Cc1ccc(O)c(/C=N/NC(=O)c2[nH]ncc2Br)c1 | – | inconclusive: 23.1 µM [falling, partial curve]
COc1ccc(CNC(=O)CCC2N=C3c4ccccc4N=C(SCc4ccccc4F)N3C2=O)cc1 (stereo not given) | inactive: -1.68% | –
O=C(Nc1cccc(Cl)c1Cl)c1ccc(-c2ccccc2)cc1 | inconclusive: -9.64% | –
Cc1ccc(C(=O)NC(=S)NNS(=O)(=O)c2ccccc2)cc1 | inactive: 7.27% | –

Record cards, as listed above:
`COc1ccccc1CCNC(=O)C(=O)c1cn(CC(=O)N2CCCC2)c2ccccc12` as listed: Potency: inconclusive: 11.2 µM [falling, partial curve, poor fit]
`CC1CCCC(C)N1C(=O)c1cccc2c1-c1ccccc1/C2=N/O` (stereo not given) as listed: Potency: inconclusive: 9.2 µM [rising, partial curve]
`Cc1ccc(C(=O)NC(=S)NNS(=O)(=O)c2ccccc2)cc1` as listed: activity change, negative = inhibition: inactive: 7.27%
`OCCC1CN(Cc2nc3ccccc3s2)CCN1CCc1ccccc1` (stereo not given) as listed: Potency: inconclusive: 35.5 µM [falling, partial curve, poor fit]
